The list shows a part of the results.

Amino acid sequences for entries named in this document (tags omitted).
UniProt Q0JBA9, entry or part of it: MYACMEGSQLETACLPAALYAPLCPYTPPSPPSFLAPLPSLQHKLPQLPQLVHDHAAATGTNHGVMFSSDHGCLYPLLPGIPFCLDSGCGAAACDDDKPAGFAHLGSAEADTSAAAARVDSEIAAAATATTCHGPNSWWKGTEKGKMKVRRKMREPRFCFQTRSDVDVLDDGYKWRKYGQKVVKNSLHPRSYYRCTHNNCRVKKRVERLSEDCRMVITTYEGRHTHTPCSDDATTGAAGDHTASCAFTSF

The target in this assay is OsWRKY34 (Oryza sativa, UniProt Q0JBA9 1-250). In words: protein-binding microarray (RPBM); PBS, 2% BSA, 51.3 ng/ul salmon testes DNA, 50 uM zinc acetate, 200 nM TF, 25 C, 1 h; high values mean tight binding. Particulars: protein: recombinant; tags: N-terminal polyhistidine and DsRed monomer fusion (pET32a); label: CyDye5-dUTP incorporated in the synthesized complementary strand; 3' TTTTT single-stranded linker to array surface; dsDNA, one strand shown. In outline:
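An Axon 4000B scanner gave the binding signal as per-feature fluorescence intensity in arbitrary units. This followed washing of a custom Agilent array that had been incubated for 1 h at 25 °C with 200 nM protein in PBS, 2% BSA, salmon testes DNA and 50 µM zinc acetate. The proteins were transcription factors fused at the N-terminus to polyhistidine and DsRed, expressed in E. coli BL21-CodonPlus and purified on Ni–NTA.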
Consider “TACTACCTTTTCTTTTCGATCCGCGTATTTGAATTGACTTCGGAGTCACCTAGTGCAG”, for which the binding signal is 10700 fluorescence intensity (a.u.). Regarding “GATCTAGAAGGCGACTCCAATTATCACCACATTTACAATTCGGAGTCACCTAGTGCAG”, the binding signal is 8130 fluorescence intensity (a.u.).

“TAACCAGACCGTCACTGATACATGGGTCCCATAGTTTTTTCGGAGTCACCTAGTGCAG”: the binding signal is 10500 fluorescence intensity (a.u.). Then “ACATGGACATATGTTACCACCGTCAATCAGCTTTGCTATTCGGAGTCACCTAGTGCAG”, with 9750 fluorescence intensity (a.u.); and “CCAACCTCTTTTTTCTATCCCTTCGCGTGGGAAAAAGGAACGGAGTCACCTAGTGCAG”, with 8390 fluorescence intensity (a.u.); and “CCTATATACGACTACCTTTATATACTACTCTATTCATTTCCGGAGTCACCTAGTGCAG”, with 10400 fluorescence intensity (a.u.). Consider “AGCTGCCCAGTCATTAGCATGGTACTTCCTCCGTTTTATACGGAGTCACCTAGTGCAG”, for which the binding signal is 8440 fluorescence intensity (a.u.). Take “ACCATCCATCTTTGTCTTTACCTATTGGACCACTAGAACACGGAGTCACCTAGTGCAG”: the binding signal was 9890 fluorescence intensity (a.u.). Then “CTCCACACCATCATCACGCGTCAGTGTGTCACGTGACTCACGGAGTCACCTAGTGCAG”, with 8070 fluorescence intensity (a.u.). Take “ATTGTTTTTTTTCTTTCTTTTTGCAAATCTCGCTTCGCTTCGGAGTCACCTAGTGCAG”: the binding signal was 8540 fluorescence intensity (a.u.). Turning to “TCCCTCTCTCTCTCTAAAACCTCGCTGTCTTTCTCTATCTCGGAGTCACCTAGTGCAG”, the binding signal was 9010 fluorescence intensity (a.u.).

As to “CTCCACCCCGATGGCCCGATCTCCGCGACCCACCTGCGCACGGAGTCACCTAGTGCAG”, the binding signal is 8230 fluorescence intensity (a.u.). As to “AATGAGTAGGCTGTGTTAATGTGGACTGTTTGTGTGTTGACGGAGTCACCTAGTGCAG”, the binding signal was 9120 fluorescence intensity (a.u.). For the sequence “CTCACCTGCTTCTCCTGCTCGAGCGTACGTTTCAACGCCACGGAGTCACCTAGTGCAG”, the binding signal is 8060 fluorescence intensity (a.u.).

For “CGATGTGTATTTGAAGATGCTTATCCTAATTAACCTTGCTCGGAGTCACCTAGTGCAG”, the binding signal was 8310 fluorescence intensity (a.u.). With “GAAATGTTGGTGACGGTGGAGGATTTTGTTGTTTTAGTGTCGGAGTCACCTAGTGCAG”, the binding signal was 9790 fluorescence intensity (a.u.).

“TGACACATGAATGATTTTTTTACTATGTTTGCCATATTGTCGGAGTCACCTAGTGCAG”: the binding signal was 10700 fluorescence intensity (a.u.). The result for “ACATGCTAGCTTCTTTTTCTCTGAACATTTAGCATTGTTCCGGAGTCACCTAGTGCAG” reads 9620 fluorescence intensity (a.u.); that for “CTATAAGTTCTCACGTCTAATTTTCATCGTCCGTCTTATTCGGAGTCACCTAGTGCAG”, 10400 fluorescence intensity (a.u.); that for “CTGTGCCTTCAAGAGAATAGGTTCGTTTGTCTCTTCCATTCGGAGTCACCTAGTGCAG”, 8300 fluorescence intensity (a.u.). Take “AACCCTACACACCCCGGTCAAGCTGTCTATTGATCGGTTACGGAGTCACCTAGTGCAG”: the binding signal was 12600 fluorescence intensity (a.u.).

For the sequence “ACCTCACCTATAAGCCTCCCGTCGGTCGCCACCGCTTCTCCGGAGTCACCTAGTGCAG”, the binding signal was 8230 fluorescence intensity (a.u.). The result for “TTACGCCTCGAGATCCGTGCGGCGCCCCATCCGCCGCGGCCGGAGTCACCTAGTGCAG” reads 8460 fluorescence intensity (a.u.); that for “AGATTAACACTTATCTCCTTGTGTTGTTGTCCTTGCTCAGCGGAGTCACCTAGTGCAG”, 11200 fluorescence intensity (a.u.).

Regarding “CAAAAATATTCAGCCGCAATCCTTCTCTTTTTACACCATACGGAGTCACCTAGTGCAG”, the binding signal was 8720 fluorescence intensity (a.u.). As for “CCTCCGTTTCACAATGTAAGTCATTCTAGCATTTCCCACACGGAGTCACCTAGTGCAG”, the binding signal was 8370 fluorescence intensity (a.u.). As to “CACCACATTGATCCCTCCGACGCTGTCGTCCACCGCATTCCGGAGTCACCTAGTGCAG”, the binding signal was 8510 fluorescence intensity (a.u.). The result for “CCCGCGCTTAACTCGCTCTCGCCTCCCGCATCGCATCTCCCGGAGTCACCTAGTGCAG” reads 9390 fluorescence intensity (a.u.); that for “ATTTACTGATTACTGCCCCAGATTTGCTACAGTCCCCATACGGAGTCACCTAGTGCAG”, 8140 fluorescence intensity (a.u.). The result for “AGTGGCCTTCATCTCGGTGTTCCCCATTTGAGCTAGCTAACGGAGTCACCTAGTGCAG” reads 11300 fluorescence intensity (a.u.); that for “CGCCGCCGCCGCCGCCGCCGCGCTCGCTCGCTCGCTTCTTCGGAGTCACCTAGTGCAG”, 10200 fluorescence intensity (a.u.); that for “GGTTTCCATGTCCAACGTTTGACTGTCCGTCTTATATGAACGGAGTCACCTAGTGCAG”, 8850 fluorescence intensity (a.u.). On to “TTTGTTAATTTAGTGCTCGATCGTACACCTCTGGATCTCACGGAGTCACCTAGTGCAG”, for which the binding signal was 8060 fluorescence intensity (a.u.).

On to “ATGAACTTAGTTGTTTTTTTTTGGGTTTTACTTGCATAATCGGAGTCACCTAGTGCAG”, for which the binding signal is 8220 fluorescence intensity (a.u.). Then “ATATCTGTAGTTCGTTGCTATTCTCTCTTATCTTTTATCTCGGAGTCACCTAGTGCAG”, with 13900 fluorescence intensity (a.u.); and “CACATGTCTCTGAACCTCCTGAACCCTCTTGCTGTCTCATCGGAGTCACCTAGTGCAG”, with 8460 fluorescence intensity (a.u.). The result for “TGAAGCCAGTTCCACCTCATTCTTGTGTTTTTATGCTTCACGGAGTCACCTAGTGCAG” reads 10700 fluorescence intensity (a.u.). For the sequence “TCTTCTAATATATTGACGTGCAATTTTTTTACGCGTTCGCCGGAGTCACCTAGTGCAG”, the binding signal was 9860 fluorescence intensity (a.u.). For the sequence “TATATATATATATATATATATATATCTGATGCTCTCTTGCCGGAGTCACCTAGTGCAG”, the binding signal is 31700 fluorescence intensity (a.u.). Then “CATTGATCACTCGCTCTGCTCACATTCTGATACTGCGATGCGGAGTCACCTAGTGCAG”, with 8540 fluorescence intensity (a.u.). As for “GGCTTCCCTCCGGCTCGAGCCAATCTCTCGCTGTGTCTCTCGGAGTCACCTAGTGCAG”, the binding signal was 8320 fluorescence intensity (a.u.). Then “TTACCCTTGTACCCATATACACACTAGTCGCTTTCTCTCACGGAGTCACCTAGTGCAG”, with 10200 fluorescence intensity (a.u.).

For the origin of these results see PMC7819943, “Rice protein-binding microarrays: a tool to detect cis-acting elements near promoter regions in rice”.
